# Measurements as given in patent publication US20150087686A1, “CRYSTALLINE FORMS OF SAXAGLIPTIN” (priority 2012, published 2015).
# Where a name gives a salt, the structure may show the parent alone. At least one structure is not confirmed: it was looked up by name or label, or the drawing left a doubt.
# Tests used:
# [1] = Chemical stability at 60° C.-37% RH (amidine impurities by HPLC-MS); type: physicochemical
# Description: (§1) Crystalline and chemical stability at 60° C.-37% RH: saxagliptin crystalline form I and the known saxagliptin crystalline forms H-1, H2-1 were stored at 60° C. with 37% relative humidity (RH). The samples were analyzed by XRPD and HPLC-MS to check crystalline transformation and chemical degradation.
# (§2) Crystalline and chemical stability at 60° C.—37% RH: Saxagliptin crystalline forms H-1, H2-1 and A were stored at 60° C. with 37% RH. The samples were analyzed by XRPD and HPLC-MS to check crystalline transformation and chemical degradation.
# [2] = Crystalline stability at 60° C.-37% RH (XRPD); type: physicochemical; details: stored at 60° C. with 37% RH
# Description: as §1, with “degradation. […] However, chemical degradations were observed (see Table 6 below).” for “degradation.”
# as §2
compound,measurement,setting,value
"N#C[C@@H]1C[C@@H]2C[C@@H]2N1C(=O)[C@@H](N)C12CC3CC(CC(O)(C3)C1)C2 [Form H2-1, saxagliptin hydrochloride dihydrate]","Δ variation amidine Impurity % (HPLC-MS), impurity (A)",[1]; 16 h (Table 6),0.14% (A)
same,"Δ variation amidine Impurities A and B % (HPLC-MS), impurity (A)",[1]; 16 h (Table 7),0.1% (A)
same,"Δ variation amidine Impurity % (HPLC-MS), impurity (A)",[1]; 168 h (Table 6),2.88%
same,"Δ variation amidine Impurity % (HPLC-MS), impurity (B)",[1]; 168 h (Table 6),0.5%
same,"Δ variation amidine Impurities A and B % (HPLC-MS), impurity (A)",[1]; 168 h (Table 7),2.9%
same,"Δ variation amidine Impurities A and B % (HPLC-MS), impurity (B)",[1]; 168 h (Table 7),0.5%
same,"Δ variation amidine Impurity % (HPLC-MS), impurity (A)",[1]; 184 h (Table 6),3.47% (A) +
same,"Δ variation amidine Impurity % (HPLC-MS), impurity (B)",[1]; 184 h (Table 6),0.61% (B)
same,Color of the solid form after storage,[1]; after 1 week,became yellowish
same,Crystalline transformation (XRPD),[2],No crystalline transformations were observed
